Test results taken from patent US20210122814A1.
Residue numbers refer to the chain shown, from its start. No constants are given. Whether binding was seen depends on the method and setting. Some entries that bind do so weakly or less than the wild type.

Chains of the proteins cited; added tags and fusions are not shown. Lines headed by an entry give the natural chain unless they say otherwise; changes in a name come on top.
UniProt P01137: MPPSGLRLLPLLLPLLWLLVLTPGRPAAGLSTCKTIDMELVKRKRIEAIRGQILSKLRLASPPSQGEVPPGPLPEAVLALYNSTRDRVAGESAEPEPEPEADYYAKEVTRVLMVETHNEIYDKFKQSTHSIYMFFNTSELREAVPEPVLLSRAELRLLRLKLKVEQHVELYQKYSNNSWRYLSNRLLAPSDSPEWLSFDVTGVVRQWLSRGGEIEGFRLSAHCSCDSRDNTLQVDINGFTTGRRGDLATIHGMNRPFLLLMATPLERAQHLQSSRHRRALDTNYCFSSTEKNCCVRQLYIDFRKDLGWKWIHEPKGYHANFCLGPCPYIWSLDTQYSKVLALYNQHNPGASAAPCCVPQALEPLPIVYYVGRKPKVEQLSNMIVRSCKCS
UniProt P04202: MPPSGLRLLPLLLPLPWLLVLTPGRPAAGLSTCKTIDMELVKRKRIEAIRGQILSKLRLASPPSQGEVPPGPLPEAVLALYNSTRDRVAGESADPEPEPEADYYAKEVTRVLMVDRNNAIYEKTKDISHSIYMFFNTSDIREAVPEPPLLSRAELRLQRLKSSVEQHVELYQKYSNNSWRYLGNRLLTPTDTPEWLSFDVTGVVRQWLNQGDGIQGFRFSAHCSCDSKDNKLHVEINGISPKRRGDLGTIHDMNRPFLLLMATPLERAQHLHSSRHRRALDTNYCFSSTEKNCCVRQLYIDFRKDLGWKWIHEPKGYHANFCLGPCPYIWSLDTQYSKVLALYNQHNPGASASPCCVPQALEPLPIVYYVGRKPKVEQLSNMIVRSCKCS
UniProt Q9NS15: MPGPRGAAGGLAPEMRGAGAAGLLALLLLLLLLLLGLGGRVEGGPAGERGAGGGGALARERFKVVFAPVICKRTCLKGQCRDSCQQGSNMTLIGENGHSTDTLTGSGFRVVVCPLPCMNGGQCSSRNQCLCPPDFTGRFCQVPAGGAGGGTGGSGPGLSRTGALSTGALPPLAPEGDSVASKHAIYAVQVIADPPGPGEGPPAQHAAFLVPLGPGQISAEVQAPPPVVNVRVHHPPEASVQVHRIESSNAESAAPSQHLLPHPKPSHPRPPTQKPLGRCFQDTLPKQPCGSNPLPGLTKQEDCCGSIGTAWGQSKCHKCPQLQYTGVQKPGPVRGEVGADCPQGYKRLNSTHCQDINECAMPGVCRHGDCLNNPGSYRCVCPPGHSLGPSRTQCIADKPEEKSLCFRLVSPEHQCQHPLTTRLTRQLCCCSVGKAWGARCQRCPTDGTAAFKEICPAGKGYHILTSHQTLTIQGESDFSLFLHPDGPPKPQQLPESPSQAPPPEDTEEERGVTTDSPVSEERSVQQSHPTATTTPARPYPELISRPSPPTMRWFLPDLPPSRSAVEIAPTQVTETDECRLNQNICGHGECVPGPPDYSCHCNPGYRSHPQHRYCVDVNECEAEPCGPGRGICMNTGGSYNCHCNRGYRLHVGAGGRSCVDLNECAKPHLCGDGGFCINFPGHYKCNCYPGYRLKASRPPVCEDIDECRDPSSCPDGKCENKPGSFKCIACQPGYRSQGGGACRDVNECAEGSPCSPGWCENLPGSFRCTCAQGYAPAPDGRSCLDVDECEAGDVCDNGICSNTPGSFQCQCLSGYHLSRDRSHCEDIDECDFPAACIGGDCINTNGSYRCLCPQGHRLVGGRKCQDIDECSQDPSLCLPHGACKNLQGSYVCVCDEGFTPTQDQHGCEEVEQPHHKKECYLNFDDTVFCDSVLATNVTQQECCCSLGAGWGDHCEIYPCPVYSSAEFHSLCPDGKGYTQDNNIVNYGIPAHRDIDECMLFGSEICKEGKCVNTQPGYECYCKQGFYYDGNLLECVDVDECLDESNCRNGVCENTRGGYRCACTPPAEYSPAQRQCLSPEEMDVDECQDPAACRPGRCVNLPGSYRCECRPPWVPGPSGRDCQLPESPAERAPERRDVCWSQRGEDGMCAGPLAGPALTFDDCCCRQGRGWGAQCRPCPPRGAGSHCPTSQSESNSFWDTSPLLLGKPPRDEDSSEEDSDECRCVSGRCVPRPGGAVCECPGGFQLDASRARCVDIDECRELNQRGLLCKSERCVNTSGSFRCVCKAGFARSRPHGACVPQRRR
UniProt P17246: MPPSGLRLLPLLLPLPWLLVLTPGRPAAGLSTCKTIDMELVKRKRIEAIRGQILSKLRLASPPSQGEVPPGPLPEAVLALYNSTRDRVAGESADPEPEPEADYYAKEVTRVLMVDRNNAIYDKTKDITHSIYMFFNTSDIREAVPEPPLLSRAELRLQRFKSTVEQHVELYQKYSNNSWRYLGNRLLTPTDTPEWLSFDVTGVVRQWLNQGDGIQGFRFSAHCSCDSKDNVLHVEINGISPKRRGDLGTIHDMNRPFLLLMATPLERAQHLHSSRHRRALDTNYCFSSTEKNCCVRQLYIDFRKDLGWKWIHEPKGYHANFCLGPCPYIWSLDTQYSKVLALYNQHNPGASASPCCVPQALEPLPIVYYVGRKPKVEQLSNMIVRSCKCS
UniProt Q00918: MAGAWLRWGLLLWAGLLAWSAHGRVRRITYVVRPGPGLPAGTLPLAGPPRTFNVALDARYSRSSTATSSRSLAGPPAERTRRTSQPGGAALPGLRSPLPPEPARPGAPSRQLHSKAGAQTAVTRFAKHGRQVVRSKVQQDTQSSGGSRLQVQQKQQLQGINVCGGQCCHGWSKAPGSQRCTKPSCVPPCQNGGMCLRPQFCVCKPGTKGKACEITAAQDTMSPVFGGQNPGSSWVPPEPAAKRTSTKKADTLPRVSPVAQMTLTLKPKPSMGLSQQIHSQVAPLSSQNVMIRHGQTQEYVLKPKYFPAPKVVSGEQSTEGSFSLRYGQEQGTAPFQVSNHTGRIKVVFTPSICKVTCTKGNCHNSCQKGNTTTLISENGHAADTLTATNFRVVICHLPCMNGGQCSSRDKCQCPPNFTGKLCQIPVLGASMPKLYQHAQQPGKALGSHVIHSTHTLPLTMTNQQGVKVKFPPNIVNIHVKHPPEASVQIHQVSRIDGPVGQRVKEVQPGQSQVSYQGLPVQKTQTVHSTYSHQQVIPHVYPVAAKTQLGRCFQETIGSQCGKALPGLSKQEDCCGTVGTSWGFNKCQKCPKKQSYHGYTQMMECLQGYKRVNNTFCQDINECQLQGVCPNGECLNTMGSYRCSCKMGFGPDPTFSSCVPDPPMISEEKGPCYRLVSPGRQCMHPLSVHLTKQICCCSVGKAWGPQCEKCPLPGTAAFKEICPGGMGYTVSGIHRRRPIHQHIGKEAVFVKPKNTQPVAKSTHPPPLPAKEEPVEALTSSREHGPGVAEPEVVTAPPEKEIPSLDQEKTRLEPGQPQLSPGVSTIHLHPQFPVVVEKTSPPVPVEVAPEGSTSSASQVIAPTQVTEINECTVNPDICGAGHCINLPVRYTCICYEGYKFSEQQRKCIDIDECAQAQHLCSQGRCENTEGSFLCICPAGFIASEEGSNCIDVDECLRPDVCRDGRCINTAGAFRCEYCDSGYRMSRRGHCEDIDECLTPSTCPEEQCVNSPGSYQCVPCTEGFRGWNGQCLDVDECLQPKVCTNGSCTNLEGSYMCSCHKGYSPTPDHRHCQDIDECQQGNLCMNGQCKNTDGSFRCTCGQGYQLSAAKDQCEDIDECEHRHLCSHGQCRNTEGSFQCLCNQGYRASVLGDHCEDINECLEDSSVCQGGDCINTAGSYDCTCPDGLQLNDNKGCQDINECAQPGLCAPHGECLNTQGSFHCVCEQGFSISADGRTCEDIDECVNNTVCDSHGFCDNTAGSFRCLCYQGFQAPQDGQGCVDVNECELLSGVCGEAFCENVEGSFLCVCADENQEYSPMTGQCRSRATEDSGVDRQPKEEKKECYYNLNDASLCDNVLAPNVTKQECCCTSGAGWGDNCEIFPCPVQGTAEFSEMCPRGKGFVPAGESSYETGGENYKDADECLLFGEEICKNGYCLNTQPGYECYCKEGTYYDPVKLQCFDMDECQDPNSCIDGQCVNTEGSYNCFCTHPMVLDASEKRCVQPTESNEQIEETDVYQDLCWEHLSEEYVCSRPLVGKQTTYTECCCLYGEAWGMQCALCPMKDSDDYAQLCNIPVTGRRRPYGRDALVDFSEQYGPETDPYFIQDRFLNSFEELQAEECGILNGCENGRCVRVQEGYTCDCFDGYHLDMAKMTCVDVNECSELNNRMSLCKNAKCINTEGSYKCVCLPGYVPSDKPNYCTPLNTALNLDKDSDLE
UniProt Q14766: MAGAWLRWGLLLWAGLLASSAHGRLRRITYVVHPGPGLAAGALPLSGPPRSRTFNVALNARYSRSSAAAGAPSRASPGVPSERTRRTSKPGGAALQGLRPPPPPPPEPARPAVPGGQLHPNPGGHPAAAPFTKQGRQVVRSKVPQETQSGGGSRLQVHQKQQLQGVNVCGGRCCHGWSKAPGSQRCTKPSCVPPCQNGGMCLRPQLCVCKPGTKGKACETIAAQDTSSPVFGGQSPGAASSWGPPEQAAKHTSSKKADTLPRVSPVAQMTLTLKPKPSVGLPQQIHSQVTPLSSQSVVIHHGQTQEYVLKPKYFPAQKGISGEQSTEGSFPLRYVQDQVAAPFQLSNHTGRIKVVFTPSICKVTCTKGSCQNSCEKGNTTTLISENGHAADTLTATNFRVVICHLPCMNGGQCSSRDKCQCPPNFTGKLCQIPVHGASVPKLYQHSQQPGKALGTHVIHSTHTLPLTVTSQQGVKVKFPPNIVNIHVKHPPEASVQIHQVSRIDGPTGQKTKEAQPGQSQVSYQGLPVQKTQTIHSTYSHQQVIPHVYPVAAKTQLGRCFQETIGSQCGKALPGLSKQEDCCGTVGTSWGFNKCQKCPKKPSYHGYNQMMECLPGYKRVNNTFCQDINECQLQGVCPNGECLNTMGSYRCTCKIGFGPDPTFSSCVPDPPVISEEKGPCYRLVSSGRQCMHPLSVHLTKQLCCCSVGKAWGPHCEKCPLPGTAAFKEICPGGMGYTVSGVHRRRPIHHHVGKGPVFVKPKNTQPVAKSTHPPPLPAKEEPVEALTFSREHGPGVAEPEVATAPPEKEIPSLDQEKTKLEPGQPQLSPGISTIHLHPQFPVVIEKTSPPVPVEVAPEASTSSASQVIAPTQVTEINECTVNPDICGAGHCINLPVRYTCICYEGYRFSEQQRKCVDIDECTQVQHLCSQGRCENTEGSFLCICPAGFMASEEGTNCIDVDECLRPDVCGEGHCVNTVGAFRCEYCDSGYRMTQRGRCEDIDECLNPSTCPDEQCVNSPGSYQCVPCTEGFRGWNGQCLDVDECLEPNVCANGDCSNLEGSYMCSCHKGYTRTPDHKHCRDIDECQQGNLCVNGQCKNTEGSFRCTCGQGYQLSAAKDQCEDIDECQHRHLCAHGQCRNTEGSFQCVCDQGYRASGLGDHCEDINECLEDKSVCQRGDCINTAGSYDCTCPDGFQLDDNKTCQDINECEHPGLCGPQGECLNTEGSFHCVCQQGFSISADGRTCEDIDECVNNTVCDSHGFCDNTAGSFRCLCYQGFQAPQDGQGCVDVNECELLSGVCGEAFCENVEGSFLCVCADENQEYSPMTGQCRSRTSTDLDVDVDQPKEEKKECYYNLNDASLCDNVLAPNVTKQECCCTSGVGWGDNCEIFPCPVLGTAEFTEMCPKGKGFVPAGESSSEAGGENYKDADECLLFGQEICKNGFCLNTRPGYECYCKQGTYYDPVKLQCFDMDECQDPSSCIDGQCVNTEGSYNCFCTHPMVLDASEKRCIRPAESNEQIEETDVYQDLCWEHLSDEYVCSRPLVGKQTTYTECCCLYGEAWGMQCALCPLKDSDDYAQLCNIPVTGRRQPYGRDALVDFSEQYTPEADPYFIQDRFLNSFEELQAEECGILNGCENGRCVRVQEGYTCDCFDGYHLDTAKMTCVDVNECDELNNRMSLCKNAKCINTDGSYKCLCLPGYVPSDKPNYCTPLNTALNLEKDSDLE
UniProt Q8BMT4: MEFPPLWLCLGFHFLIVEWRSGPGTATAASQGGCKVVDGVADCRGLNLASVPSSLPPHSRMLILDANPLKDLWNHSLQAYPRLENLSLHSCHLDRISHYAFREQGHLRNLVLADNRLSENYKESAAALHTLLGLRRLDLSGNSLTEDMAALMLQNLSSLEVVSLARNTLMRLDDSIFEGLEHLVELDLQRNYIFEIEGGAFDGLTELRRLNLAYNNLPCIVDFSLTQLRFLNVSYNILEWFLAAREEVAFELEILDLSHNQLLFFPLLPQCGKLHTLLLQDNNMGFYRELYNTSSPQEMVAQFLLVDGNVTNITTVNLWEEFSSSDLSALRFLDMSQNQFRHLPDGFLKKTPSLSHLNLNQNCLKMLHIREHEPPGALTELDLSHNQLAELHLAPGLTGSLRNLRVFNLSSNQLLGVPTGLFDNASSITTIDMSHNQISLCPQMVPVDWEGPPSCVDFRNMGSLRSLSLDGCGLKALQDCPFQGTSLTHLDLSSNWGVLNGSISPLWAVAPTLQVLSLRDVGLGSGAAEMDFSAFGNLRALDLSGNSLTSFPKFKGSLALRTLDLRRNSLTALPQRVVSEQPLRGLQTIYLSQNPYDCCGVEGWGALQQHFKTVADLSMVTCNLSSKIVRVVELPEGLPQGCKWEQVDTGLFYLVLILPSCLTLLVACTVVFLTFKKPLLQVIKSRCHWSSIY

How the values were obtained:
[1] = molecular target: hLRRC33-proTGFβ1 on the cell surface (human) (UniProt P01137); experiment: internalization assay on transfected cells (FIG. 6)
[2] = molecular target: murine LTBP3-proTGFβ1 complex (mouse) (UniProt P04202); experiment: antigen binding test after affinity maturation
[3] = molecular target: recombinant human LTBP3-proTGFβ1 complex (human) (UniProt Q9NS15); experiment: antigen binding test after affinity maturation
[4] = molecular target: T1, rat LRRC33-proTGFβ1 complex (rat) (UniProt P17246+Q5BK65); experiment: antigen binding test after affinity maturation
[5] = molecular target: murine LTBP1-proTGFβ1 complex (mouse) (UniProt P04202); experiment: antigen binding test after affinity maturation
[6] = molecular target: T2, rat LTBP1-proTGFβ1 complex (rat) (UniProt P17246+Q00918); experiment: antigen binding test after affinity maturation
[7] = molecular target: cynomolgus LRRC33-proTGFβ1 complex (cynomolgus monkey); experiment: antigen binding test after affinity maturation
[8] = molecular target: recombinant human LTBP1-proTGFβ1 complex (human) (UniProt Q14766); experiment: antigen binding test after affinity maturation
[9] = molecular target: murine LRRC33-proTGFβ1 complex (mouse) (UniProt Q8BMT4); experiment: antigen binding test after affinity maturation
[10] = molecular target: recombinant human LTBP3-proTGFβ1 complex (human) (UniProt Q9NS15); experiment: MSD-SET (solution equilibrium titration), % free antigen against Ab6 concentration
[11] = molecular target: recombinant human LTBP1-proTGFβ1 complex (human) (UniProt Q14766); experiment: as above
[12] = molecular target: recombinant human LTBP3-proTGFβ1 complex (human) (UniProt Q9NS15); experiment: MSD-SET (FIG. 33A)
[13] = molecular target: recombinant human LTBP1-proTGFβ1 complex (human) (UniProt Q14766); experiment: MSD-SET (FIG. 33A)
[14] = molecular target: recombinant human LTBP3-proTGFβ1 complex (human) (UniProt Q9NS15); experiment: MSD-SET
[15] = molecular target: T1, rat LRRC33-proTGFβ1 complex (rat); experiment: MSD-SET
[16] = molecular target: T2, rat LTBP1-proTGFβ1 complex (rat); experiment: MSD-SET
[17] = molecular target: cynomolgus LRRC33-proTGFβ1 complex (cynomolgus monkey); experiment: MSD-SET
[18] = molecular target: recombinant human LTBP1-proTGFβ1 complex (human) (UniProt Q14766); experiment: MSD-SET
[19] = molecular target: hLRRC33-proTGFβ1 on the cell surface (human) (UniProt P01137); experiment: Incucyte internalization assay, Expi293 cells expressing LRRC33-proTGFβ1
[20] = molecular target: murine LTBP3-proTGFβ1 complex (mouse) (UniProt P04202); experiment: biolayer interferometry (screening)
[21] = molecular target: recombinant human LTBP3-proTGFβ1 complex (human) (UniProt Q9NS15); experiment: biolayer interferometry (screening)
[22] = molecular target: murine LTBP1-proTGFβ1 complex (mouse) (UniProt P04202); experiment: biolayer interferometry (screening)
[23] = molecular target: recombinant human LTBP1-proTGFβ1 complex (human) (UniProt Q14766); experiment: biolayer interferometry (screening)

Measured: binding

B1: Ab6 (antibody, V domains shown)
VH: EVQLVESGGGLVQPGGSLRLSCTASGFTFSSFSMDWVRQAPGKGLEWVSYISPSADTIYYADSVKGRFTISRDNAKNTLYLQMNSLRAEDTAVYYCARGVLDYGDMLMPWGQGTLVTVSS
VL: DIQMTQSPSSLSASVGDRVTITCQASQDITNYLNWYQQKPGKAPKLLIYDASNLETGVPSRFSGSGSGTDFTFTISSLQPEDIATYYCQQADNHPPWTFGGGTKVEIKR
binds: [1] | [2] | [3] | [4] | [5] | [6] | [7] | [8] | [9] | [10] | [11] | [12] | [13] | [14] | [15] | [16] | [17] | [18] | [19]

B2: Ab4 (antibody, IgG4, V domains shown)
VH: B1 VH with T23A, F32Y, D35N, P53S, A55S, D56S, T78S, M108D
VL: DIQMTQSPSSLSASVGDRVTITCQASQDITNYLNWYQQKPGKAPKLLIYDASNLETGVPSRFSGSGSGTDFTFTISSLQPEDIATYYCQQADNHPPWTFGGGTKVEIK
binds: [20] | [21] | [22] | [23]
